Patent US20230102503A1, “BIOMARKERS FOR OXYTOCIN RECEPTOR ANTAGONIST THERAPY” (ObsEva S.A., priority 2020, published 2023)

System: endometrial RNA transcript expression (DPP4, CNTNAP3, CNTN4, CXCL12, TNXB, CTSE, OLFM4, KRT5, KRT6A, IDO2)
Experiment: RNA-Seq assay of endometrial tissue mRNA expression before and after administration
Format: in vivo, human
Procedure: Using an RNA-Seq assay, each subject's mRNA expression level of a variety of genes, including DPP4, CNTNAP3, CNTN4, CXCL12, TNXB, CTSE, OLFM4, KRT5, KRT6A, and IDO2, was then assessed to determine whether the expression of each gene increased, decreased, or underwent no significant change due to administration of the compound or placebo.

CO/N=C1/C[C@@H](CO)N(C(=O)c2ccc(-c3ccccc3C)cc2)C1 [Compound (II), (3Z,5S)-5-(hydroxymethyl)-1-[(2′-methyl-1,1′-biphenyl-4-yl)carbonyl]pyrrolidin-3-one O-methyloxime]
Log (Counts per Million) (CNTN4, single 1,800 mg dose): 3.646
Log (Counts per Million) (CNTNAP3, single 1,800 mg dose): −0.2486
Log (Counts per Million) (CTSE, single 1,800 mg dose): 2.566
Log (Counts per Million) (CXCL12, single 1,800 mg dose): 5.586
Log (Counts per Million) (DPP4, single 1,800 mg dose): 5.508
Log (Counts per Million) (IDO2, single 1,800 mg dose): 4.471
Log (Counts per Million) (KRT5, single 1,800 mg dose): 3.252
Log (Counts per Million) (KRT6A, single 1,800 mg dose): 1.033
Log (Counts per Million) (OLFM4, single 1,800 mg dose): 1.885
Log (Counts per Million) (TNXB, single 1,800 mg dose): 7.143
